Among the data in article doi:10.1101/2021.12.02.470886 are binding values, retold here.

In the assay the target is NbRZ-1A-GFP (Nicotiana benthamiana). The experiment in a line: co-IP.

These are yes or no findings as the source states them, for the method shown. Binding seen in cells or lysates may run through a third protein. Where a sequence is shown, tags or fusion partners need not be part of it.

B1: NAC089-HA (protein, UniProt Q94F58 1-340)
chain: MDTKAVGVSKDTAASMEASTVFPGFKFSPTDVELISYYLKRKMDGLERSVEVIPDLEIYNFEPWDLPDKSIVKSDSEWFFFCARGKKYPHGSQNRRATKMGYWKATGKERDVKSGSEVIGTKRTLVFHIGRAPKGERTDWIMHEYCVKGVSLDDAMVVCRVRRNKEYNSGTSQKAPKPNSSAEKHAKVQNGATSSGSPSDWDNLVDFYLAGESGEKLLAEMAESSENLQVDNDEDFFADILRDEIINLDEAVMTGNTPNEVPTLESASMEIRVLPLPNMIDKQMSSLLEERPSQKKKGKDATESLSSCFVGLYSIKSVNKARWDVIIGVVALIAMLFYLE
As to B1, the binding result is “no binding”.
